Laboratory results: PubChem BioAssay AID743454 (Peter MacCallum Cancer Centre, 2014)
Screen: 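Genes whose loss kills vorinostat-resistant colon cancer cells under vorinostat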 (primary screen). System: human HCT116-VR colon cancer cells, selected for vorinostat resistance. Reagent: siRNA pool against human genes, 40 nM siRNA pool. Timing: vorinostat for 24 h, read-out about 72 h after transfection. Conditions: vorinostat at 2.5 µM final. Read-out: 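Two measures, CellTiter-Fluor viability and luminescent caspase 3/7 activity, each as fold change against same-plate mock wells, mean of duplicates, then screen-wide robust z-score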. Reading the numbers: viability robust z-score: higher = more viable cells than screen typical; caspase robust z-score: higher = more caspase 3/7 activity than screen typical. Hit rule: 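Hits are knock-downs in viability class RV1/RV2 or caspase class CA1/CA2, excluding ones that killed cells in the no-drug cell-count arm; hits then retested with single siRNAs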.
The whole screen tested about 18,000 reagents; below is a random part of them. 450 of all reagents (2.5%) count as active. 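Single biological run; no consistent viability z cut-off exists, so the class columns, not z-scores, define the calls.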 Entries without a mark were called inactive.

| gene knocked down | viability hit class | caspase hit class | viability robust z-score | caspase robust z-score |
| --- | --- | --- | --- | --- |
| WNT9B (GeneID 7484) | no change | no change | -0.12 | 2.05 |
| PRDX5 (GeneID 25824) | no change | no change | 1.44 | -0.72 |
| TRIM54 (GeneID 57159) | no change | no change | -2.27 | 3.58 |
| CXCL3 (GeneID 2921) | no change | no change | 0.8 | 1.09 |
| PDCD6IP (GeneID 10015) | no change | no change | -0.68 | -0.8 |
| NPAS2 (GeneID 4862) | no change | no change | -0.61 | -1.02 |
| OR13D1 (GeneID 286365) | no change | no change | -0.62 | -0.34 |
| BATF2 (GeneID 116071) | no change | no change | -3.19 | 0.09 |
| MYD88 (GeneID 4615) | no change | no change | -0.72 | -0.1 |
| EHHADH (GeneID 1962) | no change | no change | 0.67 | -0.64 |
| CC2D1B (GeneID 200014) | no change | no change | 0.46 | -0.27 |
| ADGRL3 (GeneID 23284) | no change | no change | -0.2 | 0.04 |
| PROSER3 (GeneID 148137) | no change | no change | -0.58 | 0.77 |
| WDR90 (GeneID 197335) | no change | no change | 0.52 | -1.12 |
| RBM8A (GeneID 9939) | no change | no change | -4.88 | 1.17 |
| RSPH6A (GeneID 81492) | no change | no change | 0.02 | -0.36 |
| KIAA1958 (GeneID 158405) | no change | no change | 1.52 | -0.9 |
| RTL5 (GeneID 340526) | no change | no change | 0.9 | 0.21 |
| FAHD2A (GeneID 51011) | no change | no change | -0.32 | 2.12 |
| OR5M11 (GeneID 219487) | no change | no change | -0.15 | -0.36 |
| ODAD2 (GeneID 55130) | no change | no change | -0.15 | 2.7 |
| PRICKLE4 (GeneID 29964) | no change | no change | 0.84 | -0.04 |
| CBLN4 (GeneID 140689) | no change | no change | -0.34 | -0.92 |
| GNG7 (GeneID 2788) | no change | no change | -0.85 | -0.61 |
| CCL3 (GeneID 6348) | no change | no change | -0.78 | 0.7 |
| TAS2R19 (GeneID 259294) | no change | no change | 0.38 | -1.15 |
| FAR1 (GeneID 84188) | no change | no change | -1.71 | -1.3 |
| TMEM129 (GeneID 92305) | no change | no change | 0.15 | 0.47 |
| PTCHD3 (GeneID 374308) | no change | no change | -0.39 | -0.73 |
| KDM2B (GeneID 84678) | no change | no change | -1.54 | 0.76 |
| PTGES3 (GeneID 10728) | no change | no change | -0.3 | 0.81 |
| CFHR2 (GeneID 3080) | no change | no change | 0.57 | -0.45 |
| CDK3 (GeneID 1018) | no change | no change | -0.09 | 0.43 |
| P2RX4 (GeneID 5025) | no change | no change | 1.32 | 1.4 |
| ADGRA2 (GeneID 25960) | no change | no change | 0.32 | -0.5 |
| UNC45A (GeneID 55898) | no change | no change | -0.12 | 1.37 |
| PDRG1 (GeneID 81572) | no change | no change | 1.07 | 0.18 |
| CFAP157 (GeneID 286207) | no change | no change | 0.18 | 0.52 |
| ZSWIM9 (GeneID 374920) | no change | no change | 1.46 | 1.4 |
| HDGF (GeneID 3068) | no change | no change | -0.26 | 1.62 |
| EPS15 (GeneID 2060) | no change | no change | 0.41 | -1.1 |
| MLEC (GeneID 9761) | no change | no change | -1.58 | -0.78 |
| FAM194C (GeneID 84077) | no change | no change | 0.4 | -0.72 |
| SLC5A1 (GeneID 6523) | no change | no change | -0.49 | 0.64 |
| PAX8 (GeneID 7849) | no change | no change | -1.04 | 0.24 |
| PRY2 (GeneID 442862) | no change | no change | 0.45 | 2.13 |
| TRIM51BP (GeneID 399937) | no change | no change | -1.31 | 1.84 |
| MGME1 (GeneID 92667) | no change | no change | -0.19 | -0.92 |
| ARMC8 (GeneID 25852) | no change | no change | 1.23 | -0.28 |
| SMCO1 (GeneID 255798) | no change | no change | 0.38 | -0.76 |
| MTPN (GeneID 136319) | no change | no change | 0.21 | 1.21 |
| PNMA3 (GeneID 29944) | no change | no change | 1.29 | -0.7 |
| PSTPIP1 (GeneID 9051) | no change | no change | 1.84 | -0.04 |
| NPB (GeneID 256933) | no change | no change | 1.15 | -0.13 |
| GPX7 (GeneID 2882) | no change | no change | -1.56 | -1.11 |
| PLAC1 (GeneID 10761) | no change | no change | 1.17 | -0.05 |
| ASCL2 (GeneID 430) | no change | no change | 1.23 | 1.87 |
